According to publication PMC6073470 (International Journal of Molecular Sciences, 2018):
Results are given in words; binding and its absence hold for the method and conditions named. Some results given as binding are weak or reduced against the parent protein; the word gives no strength.

How the values were obtained:
Conditions in all cases: remark: other sources report otherwise
[1] = biological target: T1, human small heat shock protein HspB8, wild type (human), Q9UJY1; assay: cross-linking; DSS 0-500 uM, 30 min at 37 C in PBS after reduction with DTT and desalting; SDS-PAGE; both purified
T1 chain: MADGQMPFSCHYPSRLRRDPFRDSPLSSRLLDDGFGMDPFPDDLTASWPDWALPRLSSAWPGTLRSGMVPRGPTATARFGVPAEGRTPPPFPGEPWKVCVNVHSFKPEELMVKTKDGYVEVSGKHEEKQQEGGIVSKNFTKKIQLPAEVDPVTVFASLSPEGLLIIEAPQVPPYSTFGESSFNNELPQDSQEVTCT

[2] = biological target: T1, human small heat shock protein HspB8, …; assay: AUC; sedimentation velocity, 42,000 rpm, 20 C; 50 mM phosphate pH 6.8, 150 mM NaCl, 2 mM DTT; 0.4 mg/mL (HspB1, HspB8) or 0.8 mg/mL (HspB4, HspB5, HspB6); SEDFIT; both purified
[3] = biological target: T1, human small heat shock protein HspB8, …; assay: cross-linking; disulfide formation by mild oxidation of SH groups: dialysis without reducing agent at 37 C, 2-24 h, 1.2 mg/mL, stopped with iodoacetamide; SDS-PAGE; data not presented; both purified

binding [1]: binds
binding [2]: binds
binding [3]: binds
B1: human small heat shock protein HspB8, wild type, Q9UJY1 1-196 (natural protein)
chain: T1 chain
